# Laboratory results: PubChem BioAssay AID1053208 (Peter MacCallum Cancer Centre, 2014)
# Purpose: 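Find knock-downs that sensitise mouse osteosarcoma cells to doxorubicin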 (primary screen)
# Cells: mouse osteosarcoma cells, early-passage culture from an engineered mouse model of fibroblastic bone tumour
# Reagent: siRNA pool against mouse genes, 40 nM
# Timing: about 120 h (48 h before drug, then 72 h with drug)
# Treatment: doxorubicin 100 nM for 72 h, roughly 30-40% inhibitory dose
# Read-out: 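Luminescent ATP signal taken as viability with or without 100 nM doxorubicin for 72 h; mean of two wells set against non-targeting siRNA and turned into robust z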
# Scale: viability z-score with doxorubicin: higher = more viable cells under doxorubicin; viability z-score without drug: higher = more viable cells with knock-down alone
# Call rule: 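Called active if knock-down leaves viability unchanged without drug (z within -2 to 2) but lowers it with doxorubicin (z at or under -2)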
# Shown is an unselected part of about 17,000 reagents tested. In the full data, 788 (4.7%) are marked active. 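Calls rest on z-score classes alone; an extra cut-off of viability at most 70% of control was not applied to them.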 A number with no mark means an inactive call. The numbers tell different reagents against one gene apart. Not all columns of the deposit are shown.
gene symbol,reagent,combined z-score class,viability z-score with doxorubicin,viability z-score without drug
Nrp2 (neuropilin 2),1,no change with or without drug,-0.79,-0.17
Klk6 (kallikrein related-peptidase 6),1,no change with or without drug,-0.22,1.01
Blvra (biliverdin reductase A),1,no change with or without drug,0,0.51
Dctn2 (dynactin 2),1,no change with or without drug,0.67,1.18
Ccnl1 (cyclin L1),1,no change with or without drug,-0.45,-0.67
Fuom (fucose mutarotase),1,no change with or without drug,0.9,1.69
Dennd11 (DENN domain containing 11),1,no change with or without drug,-0.67,0.51
Ccdc122 (coiled-coil domain containing 122),1,no change with or without drug,-1.35,1.85
Ptbp3 (polypyrimidine tract binding protein 3),1,no change with or without drug,-1.12,-1.01
Acsl1 (acyl-CoA synthetase long-chain family member 1),1,no change with or without drug,-0.9,-1.18
"Atp11b (ATPase, class VI, type 11B)",1,no change with or without drug,-1.69,0.34
"Sult3a1 (sulfotransferase family 3A, member 1)",1,low cell count without drug only,0,-2.19
Pebp1 (phosphatidylethanolamine binding protein 1),1,no change with or without drug,0.34,0.51
Hnrnpf (heterogeneous nuclear ribonucleoprotein F),1,no change with or without drug,0.22,0.67
Pygm (muscle glycogen phosphorylase),1,no change with or without drug,-1.01,0.84
P3h4 (prolyl 3-hydroxylase family member 4 (non-enzymatic)),1,low cell count with and without drug,-2.02,-2.7
A530020G20Rik (RIKEN cDNA A530020G20 gene),1,no change with or without drug,-0.79,-0.51
Arcn1 (archain 1),1,low cell count with and without drug,-8.09,-6.07
Mcoln2 (mucolipin 2),1,no change with or without drug,1.35,0.84
Nbeal1 (neurobeachin like 1),1,high cell count without drug only,1.24,2.19
Enpp5 (ectonucleotide pyrophosphatase/phosphodiesterase 5),1,no change with or without drug,0.45,-1.18
Tcirg1,1,no change with or without drug,-0.11,-0.17
Pdcd4 (programmed cell death 4),1,no change with or without drug,0.34,0.34
Or13p10 (olfactory receptor family 13 subfamily P member 10),1,low cell count with and without drug,-2.92,-2.02
Klhl4 (kelch-like 4),1,no change with or without drug,0,1.18
Or6d15 (olfactory receptor family 6 subfamily D member 15),1,no change with or without drug,-0.67,0.34
Twnk (twinkle mtDNA helicase),1,no change with or without drug,0,-0.51
Crct1 (cysteine-rich C-terminal 1),1,no change with or without drug,0.22,0.84
Hmgxb4 (HMG box domain containing 4),1,no change with or without drug,0.9,-0.51
Dok2 (docking protein 2),1,no change with or without drug,-0.67,-0.84

7 entries from above, reduced to “combined z-score class”:
Enpp5 (ectonucleotide pyrophosphatase/phosphodiesterase 5)	no change with or without drug
Tcirg1	no change with or without drug
Pdcd4 (programmed cell death 4)	no change with or without drug
Or13p10 (olfactory receptor family 13 subfamily P member 10)	low cell count with and without drug
Klhl4 (kelch-like 4)	no change with or without drug
Or6d15 (olfactory receptor family 6 subfamily D member 15)	no change with or without drug
Twnk (twinkle mtDNA helicase)	no change with or without drug

The list goes on:
gene symbol,reagent,combined z-score class,viability z-score with doxorubicin,viability z-score without drug
Ddah1 (dimethylarginine dimethylaminohydrolase 1),1,no change with or without drug,1.46,0.17
Zfp661 (zinc finger protein 661),1,no change with or without drug,0,0.51
Speer4d (spermatogenesis associated glutamate (E)-rich protein 4D),1,no change with or without drug,1.12,0.34
Dedd2 (death effector domain-containing DNA binding protein 2),1,no change with or without drug,-0.34,0.17
Slc17a1,1,no change with or without drug,-0.9,-0.51
Adamts19 (ADAM metallopeptidase with thrombospondin type 1 motif 19),1,no change with or without drug,-0.9,-0.17
Hspbap1 (Hspb associated protein 1),1,no change with or without drug,-1.35,-0.67
"Gabpb2 (GA repeat binding protein, beta 2)",1,no change with or without drug,1.57,1.69
"Ppp1r3b (protein phosphatase 1, regulatory subunit 3B)",1,no change with or without drug,0.9,0.51
Knop1 (lysine rich nucleolar protein 1),1,no change with or without drug,-0.9,0.51
Nfkbia,1,no change with or without drug,1.69,-0.17
Fxn (frataxin),1,no change with or without drug,-1.35,-0.51
Rbfa (ribosome binding factor A),1,no change with or without drug,0.11,-1.35
Msrb3 (methionine sulfoxide reductase B3),1,no change with or without drug,0.34,-0.84
Trmt112 (tRNA methyltransferase 11-2),1,no change with or without drug,0.22,1.01
Trdv2-2 (T cell receptor delta variable 2-2),1,no change with or without drug,0,-0.17
Prdm5 (PR domain containing 5),1,high cell count with doxorubicin only,2.14,1.52
Rilpl1 (Rab interacting lysosomal protein-like 1),1,no change with or without drug,0.34,0.17
Cxcr6 (C-X-C motif chemokine receptor 6),1,no change with or without drug,0.34,-0.51
Plekhm1 (pleckstrin homology and RUN domain containing M1),1,no change with or without drug,-0.22,-0.17
Armc9 (armadillo repeat containing 9),1,high cell count without drug only,-1.57,2.53
Sipa1 (signal-induced proliferation associated gene 1),1,no change with or without drug,-0.9,-0.84
Riiad1,1,no change with or without drug,-1.12,-0.17
Nol12 (nucleolar protein 12),1,low cell count with doxorubicin only (active),-2.59,-1.52
Dnajc8 (DnaJ heat shock protein family (Hsp40) member C8),1,no change with or without drug,0.67,0.51
Zfp101 (zinc finger protein 101),1,no change with or without drug,1.57,1.18
"Got1 (glutamic-oxaloacetic transaminase 1, soluble)",1,no change with or without drug,0.45,-0.17
9030612E09Rik (RIKEN cDNA 9030612E09 gene),1,no change with or without drug,-1.35,-0.34
"Fam76b (family with sequence similarity 76, member B)",1,no change with or without drug,-0.45,1.01
R3hdm4 (R3H domain containing 4),1,no change with or without drug,-0.45,0.17
Tmc7 (transmembrane channel-like gene family 7),1,no change with or without drug,1.01,0.17
Tceanc2,1,no change with or without drug,-1.46,0.51
Tceanc2,2,no change with or without drug,-0.11,-1.01
